# Test results as given in US4013449A, “Method of controlling weed growth in a paddy field” (priority 1974, dated 1977).
# The name of at least one read-out is uncertain.
# Target: T1, acetyl cholinesterase in the head of a house fly (Musca domestica, UniProt Q2YHQ7)
# T1 construct: preparation details not in excerpts
# Test: Concentration for inhibiting activity of acetyl cholinesterase in the head of a house fly (Table 1)
# Assay type: biochemical
row,Compound,IC50 [µM]
1,"CNC(=O)Oc1cccc2ccccc12 [α-NAC, α-naphthyl-N-methyl carbamate, reference compound]",0.9
2,"CNC(=O)Oc1ccc2ccccc2c1 [β-NAC, β-naphthyl-N-methyl carbamate]",14
